In paper PMC5882533 (Cancer discovery, 2018) one finds proliferation data, which are given here for 1 compound.

In experiment [1] the test system is OCI-LY1. As to the kind of experiment: Proliferation of OCI-LY1 cells. In kind it is cell-based, human. The following applies: OCI-LY1, increasing doses, 72h.
The test system of experiment [2] is MEC-1. As to the kind of experiment: Proliferation of MEC-1 cells. The following applies: MEC-1, increasing doses, 72h. The class given is cell-based, human.

Regarding `CCNC(=O)C[C@@H]1N=C(c2ccc(Cl)cc2)c2cc(OC)ccc2-n2c(C)nnc21` [iBET762], the proliferation entry in experiment [1] and in experiment [2] was “Dose dependent decrease of proliferation” in each case.
